The target in this assay is AT4 receptor (Bos taurus, UniProt F1N1Q8). Put plainly: 125I-AIV binding and competition, coronary venular endothelial cell (CVEC) membranes. Details: species or system bovine.

Protein sequences, listed by entry. Tags and fused reporters are not part of them. Residues count along the entry.
UniProt F1N1Q8, 1-1022: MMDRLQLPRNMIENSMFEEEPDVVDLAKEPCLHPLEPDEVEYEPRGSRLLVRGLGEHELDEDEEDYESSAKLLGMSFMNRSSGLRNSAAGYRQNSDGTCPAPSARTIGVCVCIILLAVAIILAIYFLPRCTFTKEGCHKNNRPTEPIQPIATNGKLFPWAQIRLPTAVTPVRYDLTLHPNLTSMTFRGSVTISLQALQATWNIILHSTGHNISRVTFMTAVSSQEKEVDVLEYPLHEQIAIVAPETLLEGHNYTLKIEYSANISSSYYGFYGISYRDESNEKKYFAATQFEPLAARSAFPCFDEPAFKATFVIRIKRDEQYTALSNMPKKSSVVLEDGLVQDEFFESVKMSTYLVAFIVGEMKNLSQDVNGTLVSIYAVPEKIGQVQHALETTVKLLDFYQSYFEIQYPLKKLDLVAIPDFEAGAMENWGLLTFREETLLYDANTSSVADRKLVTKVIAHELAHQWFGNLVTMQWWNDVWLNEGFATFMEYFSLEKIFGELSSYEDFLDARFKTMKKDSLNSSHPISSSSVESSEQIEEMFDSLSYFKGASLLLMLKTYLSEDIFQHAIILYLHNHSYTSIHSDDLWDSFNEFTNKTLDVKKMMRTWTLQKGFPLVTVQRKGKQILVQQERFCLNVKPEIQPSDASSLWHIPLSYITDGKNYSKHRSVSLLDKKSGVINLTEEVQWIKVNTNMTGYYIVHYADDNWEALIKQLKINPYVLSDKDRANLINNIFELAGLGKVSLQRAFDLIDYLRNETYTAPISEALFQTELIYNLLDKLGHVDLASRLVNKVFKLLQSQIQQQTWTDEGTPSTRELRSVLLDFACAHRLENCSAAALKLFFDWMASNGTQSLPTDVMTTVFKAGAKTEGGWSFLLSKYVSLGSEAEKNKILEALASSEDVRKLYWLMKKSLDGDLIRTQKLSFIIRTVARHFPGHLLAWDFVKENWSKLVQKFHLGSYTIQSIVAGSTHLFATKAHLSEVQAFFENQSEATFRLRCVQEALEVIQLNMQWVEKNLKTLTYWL

Some entries of the source have several records that differ or are many. Only these are listed. An entry can have further records. Results that share an entry differ for a reason that is not stated; they may come from other doses, times, organisms or constructs than stated.

In the case of `CC[C@H](C)[C@H](NC(=O)[C@H](Cc1ccc(O)cc1)NC(=O)[C@@H](NC(=O)[C@H](CCCNC(=N)N)NC(=O)[C@@H](N)CC(=O)O)C(C)C)C(=O)N[C@@H](Cc1cnc[nH]1)C(=O)N1CCC[C@H]1C(=O)N[C@@H](Cc1ccccc1)C(=O)O`, the “increase in Ki (decrease in affinity) compared with AIV” value is 200 fold and 20 fold.

The record behind these values is US5854388A, “Angiotensin IV peptides and receptor” (Washington State University Research Foundation, priority 1994, dated 1998).
